For the test, the target named is T1, CDC20 (UniProt Q12834 1-499).
T1 construct: For enzyme assays the Flag(3x) tag was removed by HRV 3C protease; for phage display an uncleavable Myc(3x)-Hexahistidine tag was used; source: baculovirus-infected insect cells, purified (anti-Flag M2 resin, ion exchange, SEC)
Put plainly: pull-down; GST–UbV^CDH1 or GST–Ub with CDH1 or CDC20, GST pulldown, Coomassie-stained SDS–PAGE; n = 3. As to conditions: both partners purified.

Amino acid sequences for entries named in this document (tags omitted).
UniProt Q12834, whole entry: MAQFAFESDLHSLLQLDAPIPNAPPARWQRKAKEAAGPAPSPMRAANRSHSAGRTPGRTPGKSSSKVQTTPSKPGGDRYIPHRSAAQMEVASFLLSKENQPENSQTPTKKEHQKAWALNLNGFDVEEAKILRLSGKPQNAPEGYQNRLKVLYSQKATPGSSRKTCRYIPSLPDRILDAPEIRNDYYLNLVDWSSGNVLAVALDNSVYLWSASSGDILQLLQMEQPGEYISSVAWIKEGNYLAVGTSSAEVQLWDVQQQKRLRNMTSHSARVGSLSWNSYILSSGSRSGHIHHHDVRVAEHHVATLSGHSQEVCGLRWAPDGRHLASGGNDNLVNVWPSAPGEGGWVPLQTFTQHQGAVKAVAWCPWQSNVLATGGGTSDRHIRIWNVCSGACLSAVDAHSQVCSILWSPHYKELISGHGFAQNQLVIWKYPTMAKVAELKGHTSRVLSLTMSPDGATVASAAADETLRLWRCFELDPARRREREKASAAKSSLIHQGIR

B1: GST–UbV^CDH1 (designed binder)
chain: MQIFVKTRKGTSITLEVEPSDTIENVKAKIQDKEGIPPDQQRLRFAGKQLEDGRTLSDYNIHNASSLYLRSPLRALAG
notes: also called GST–UbV^CDH1 fusion; not shown: GST, N-terminal, kept
As for B1, the binding result is reported as “binds”.

These data come from PMC10643132, “Time-resolved cryo-EM (TR-EM) analysis of substrate polyubiquitination by the RING E3 anaphase-promoting complex/cyclosome (APC/C)” (Nature Structural & Molecular Biology, 2023).
